Reference: PubChem BioAssay AID1487 (National Center for Advancing Translational Sciences (NCATS), 2009)
Some of the results follow. The main result of the screen is listed elsewhere. These columns were measured beside it and carry no call. Most of these compounds were active or inconclusive in the main read-out, so they are no random draw. Words in brackets tell the shape of the fitted curve; partial curves, single points and poor fits give uncertain potencies.

Test: qHTS Assay for Modulators of Lamin A Splicing
Conditions: HeLa LMNA splicing GFP/RFP minigene ratio, 48 h
How it was run: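 Read-out is the ratio of GFP to DsRed2 object intensity, acquired by 488 nm laser-scanning cytometry on HeLa lamin A-EGFP minigene reporter cells. Compound incubation 48 hrs at 37 °C in Opti-MEM with 2% FBS; DMSO 0.5% final.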

[1] = measured here: RFP viability control channel
[2] = measured here: GFP splicing reporter channel

Compound: Cc1sc2ncnc(SCC(=O)NNC(=O)c3ccco3)c2c1C
- AC50 [1]: 1.58 µM [rising, partial curve, poor fit]

Compound: CCOc1ccc2nc(NCCNC(=S)NCCCN(C)C)c(C#N)cc2c1
- AC50 [2]: 1.41 µM [falling, full curve, poor fit]

Compound: COc1ccc(Cl)cc1NS(=O)(=O)c1c(C)[nH]c(=O)[nH]c1=O
- AC50 [2]: 12.6 µM [rising, partial curve, poor fit]
- AC50 [1]: 31.6 µM [rising, single point]

Compound: COc1ccc(OC)c(C2CC(=O)c3c([nH]c(C(=O)OCC4CCCO4)c3C)C2)c1 (configuration not stated)
- AC50 [1]: 15.8 µM [rising, single point]

Compound: COc1ccc(Nc2ncnc3c2nc2n3CCCC2)cc1Cl
- AC50 [2]: 12.6 µM [falling, partial curve, poor fit]

Compound: Cc1ccc(N=c2sc(C)c(C)n2C)cc1
- AC50 [1]: 20 µM [rising, partial curve, poor fit]

Compound: CCOC(=O)c1ccc(/C=C2/C=C(c3ccccc3)N(c3ccc(Cl)c(C(=O)O)c3)C2=O)cc1
- AC50 [2]: 10 µM [rising, partial curve]
- AC50 [1]: 12.6 µM [rising, partial curve, poor fit]

Compound: Cc1cccc(/C=C(\C(=O)C(=O)O)c2ccc3ccccc3n2)c1
- AC50 [1]: 8.91 µM [rising, partial curve, poor fit]

Compound: CCSc1nc(-c2ccccc2)nc(C(Cl)Cl)n1
- AC50 [2]: 35.5 µM [falling, single point]
- AC50 [1]: 35.5 µM [falling, single point]

Compound: CCOc1ccc(OCC)c(NC(=O)CN(C)S(=O)(=O)c2ccc3nc(C)sc3c2)c1
- AC50 [2]: 12.6 µM [rising, partial curve, poor fit]
- AC50 [1]: 14.1 µM [rising, partial curve]

Compound: C=C(C)CN=C1NN=C(c2cc(C)n(-c3ccc(C)cc3)c2C)CS1
- AC50 [2]: 1.26 µM [rising, full curve, poor fit]
- AC50 [1]: 12.6 µM [rising, partial curve]

Compound: CCCS/C(N)=N/N=C/c1cc(C)ccc1O
- AC50 [2]: 35.5 µM [rising, single point]

Compound: O=C(c1ccc(Cl)c(Cl)c1)N1CCC(=O)N(C(COCc2cccc(C(F)(F)F)c2)Cc2ccccc2)CC1 (configuration not stated)
- AC50 [2]: 0.0891 µM [falling, full curve]

Compound: Cc1csc(NC(=O)c2ccc(S(=O)(=O)N(C)c3ccccc3)cc2)n1
- AC50 [1]: 10 µM [rising, partial curve]

Compound: O=C(CCCC1=NS(=O)(=O)c2ccccc2N1)N1CCN(c2ccc(Cl)cc2)CC1
- AC50 [1]: 6.31 µM [rising, full curve, poor fit]

Compound: CC1CN(C(=O)N2c3ccccc3Sc3ccccc32)CC(C)O1 (configuration not stated)
- AC50 [2]: 35.5 µM [falling, partial curve]

Compound: O=C(Nc1nc2ccccc2[nH]1)c1ccccc1F
- AC50 [1]: 35.5 µM [falling, single point]

Compound: CC(=O)Nc1cc(ON=C(C)C)cc([N+](=O)[O-])c1
- AC50 [2]: 35.5 µM [rising, single point]
- AC50 [1]: 25.1 µM [rising, single point]

Compound: Cc1cc(-n2c(C)cc(C(=S)N3CCOCC3)c2C)ccc1Br
- AC50 [2]: 25.1 µM [rising, single point]
- AC50 [1]: 25.1 µM [rising, single point]

Compound: Cc1cc(Nc2cccc(C(F)(F)F)c2)nc2ccc(NC(=O)c3cccnc3)cc12
- AC50 [2]: 31.6 µM [falling, single point]
- AC50 [1]: 28.2 µM [falling, single point]

Compound: Cc1ccc(OCC(O)Cn2c(=N)n(Cc3ccccc3)c3ccccc32)cc1 (configuration not stated)
- AC50 [1]: 31.6 µM [rising, single point]

Compound: Cc1ccccc1-n1c(SCc2cc(=O)n3ccccc3n2)nc2[nH]ncc2c1=O
- AC50 [1]: 8.91 µM [rising, partial curve]

Compound: CC(C)C1O/C(=N/C(=O)Nc2ccc(Cl)c(Cl)c2)NC1=O (configuration not stated)
- AC50 [2]: 20 µM [rising, single point]
- AC50 [1]: 35.5 µM [rising, single point]

Compound: CCCCCC(=O)Nc1ccc(-c2csc(C)n2)cc1
- AC50 [2]: 7.08 µM [rising, partial curve, poor fit]
- AC50 [1]: 22.4 µM [rising, single point]

Compound: O=S(=O)(Nc1cccc(-c2ccc(N3CCCC3)nn2)c1)c1cc(F)ccc1F
- AC50 [2]: 5.01 µM [falling, full curve]
- AC50 [1]: 5.01 µM [falling, partial curve]

Compound: CC(C)(C)NS(=O)(=O)c1cccc(S(=O)(=O)c2cccc(S(=O)(=O)NC(C)(C)C)c2)c1
- AC50 [1]: 0.00891 µM [falling, full curve, poor fit]

Compound: Cc1cc2c(cc1C)NC(c1c(C)n(C)n(-c3ccccc3)c1=O)C1=C(CC(C)(C)CC1=O)N2 (configuration not stated)
- AC50 [1]: 31.6 µM [rising, single point]

Compound: O=C(COC(=O)c1cc(=O)c2ccccc2o1)NC1CCCCC1
- AC50 [2]: 0.00794 µM [rising, full curve, poor fit]

Compound: Cc1[nH]n(-c2ccccc2)c(=O)c1C(=O)c1ccc([N+](=O)[O-])cc1
- AC50 [2]: 35.5 µM [falling, single point]
- AC50 [1]: 11.2 µM [falling, partial curve, poor fit]

Compound: CCOC(=O)N1CCN(Cc2nc3cc(NC(=O)c4ccc([N+](=O)[O-])cc4)ccc3n2C(C)C)CC1
- AC50 [1]: 3.55 µM [rising, full curve]

Compound: Cc1nc(N2CCN(C(=O)COc3ccccc3)CC2)c2c(C)c(C)sc2n1
- AC50 [1]: 5.01 µM [rising, partial curve]

Compound: COc1ccc(C2CC(=O)Nc3sc(=N)c4c(N)c(C#N)c(N)nc4c32)cc1OC (configuration not stated)
- AC50 [2]: 11.2 µM [rising, single point]

Compound: CC1CC(C)CN(c2ccc(-n3cnnn3)cc2[N+](=O)[O-])C1 (configuration not stated)
- AC50 [2]: 35.5 µM [falling, single point]
- AC50 [1]: 15.8 µM [falling, single point]

Compound: CCCCCCOc1ccc(/C(N)=N/O)cc1
- AC50 [2]: 15.8 µM [rising, partial curve]
- AC50 [1]: 12.6 µM [rising, partial curve]

Compound: O=C(CN1CCN(c2cccc(Cl)n2)CC1)N1CC(O)CO1 (configuration not stated)
- AC50 [2]: 0.00501 µM [rising, full curve, poor fit]

Compound: O=C(O)CCCCC1CCSS1 (configuration not stated)
- AC50 [2]: 35.5 µM [falling, single point]
- AC50 [1]: 35.5 µM [falling, single point]

Compound: COCC(=O)O[C@]1(CCN(C)CCCc2nc3ccccc3[nH]2)CCc2cc(F)ccc2[C@@H]1C(C)C
- AC50 [2]: 17.8 µM [falling, partial curve]
- AC50 [1]: 15.8 µM [falling, partial curve]

Compound: COc1cc(/C=N/NC(=O)c2ccc(N(C)S(=O)(=O)c3ccccc3)cc2)cc(OC)c1OC
- AC50 [1]: 35.5 µM [rising, single point]

Compound: COc1ccccc1OCCCn1c(C)c(C#N)c2ccccc21
- AC50 [2]: 35.5 µM [rising, single point]
- AC50 [1]: 35.5 µM [rising, single point]

Compound: O=C(NCc1cccnc1)C1CCN(Cc2cc3ccccc3n2Cc2ccccc2)CC1
- AC50 [2]: 22.4 µM [falling, single point]
- AC50 [1]: 35.5 µM [falling, single point]

Compound: CCN(CC)Cc1cc(Nc2ccnc3cc(Cl)ccc23)ccc1O
- AC50 [2]: 0.002 µM [falling, full curve, poor fit]
- AC50 [1]: 0.1 µM [rising, full curve, poor fit]

Compound: O=C(COc1ccccc1)N1CCN(S(=O)(=O)Cc2ccccc2)CC1
- AC50 [2]: 17.8 µM [rising, partial curve]
- AC50 [1]: 0.00891 µM [rising, full curve, poor fit]

Compound: Cc1oc2c(c(=O)c1C)C(=O)CC(c1ccccc1)C2 (configuration not stated)
- AC50 [1]: 0.0178 µM [rising, single point]

Compound: Cc1cc(C(F)F)n2nc(C(=O)Nc3sc4c(c3C(N)=O)CCC4)nc2n1
- AC50 [1]: 1.12 µM [rising, partial curve]

Compound: CC(C)c1ccc(NC(=O)CN2C=NS(=O)(=O)c3ccccc32)cc1
- AC50 [1]: 0.501 µM [falling, full curve]

Compound: COc1ccc(OC)c(C(=O)C2COC(=O)C2)c1 (configuration not stated)
- AC50 [1]: 11.2 µM [rising, partial curve]

Compound: Cc1ccc2nc(SCC(=O)NC3CCCc4ccccc43)[nH]c2c1 (configuration not stated)
- AC50 [1]: 35.5 µM [rising, single point]

Compound: CCOc1cc(NC(=O)c2ccccn2)c(OCC)cc1NC(=O)c1cccc(C)c1
- AC50 [2]: 17.8 µM [rising, partial curve]
- AC50 [1]: 10 µM [rising, partial curve]

Compound: COC(=O)c1cc2oc(C)cc2n1Cc1ccc(C)cc1
- AC50 [1]: 35.5 µM [rising, single point]

Compound: COc1ccc(C(Nc2ccccn2)c2c(NC(=O)c3ccco3)sc(C)c2C)cc1 (configuration not stated)
- AC50 [1]: 15.8 µM [rising, partial curve, poor fit]

Compound: O=C1S/C(=C\c2ccc(N3CCOCC3)o2)C(=O)N1Cc1c(F)cccc1Cl
- AC50 [2]: 35.5 µM [falling, single point]
- AC50 [1]: 12.6 µM [falling, partial curve]

Compound: Cc1cc(C)c2nc(NNC(=O)c3ccc(S(=O)(=O)N4CCc5ccccc5C4)cc3)sc2c1
- AC50 [1]: 2.82 µM [rising, single point]

Compound: COc1ccc(-c2cc(CNC(=O)CCl)on2)cc1
- AC50 [2]: 3.55 µM [falling, single point]
- AC50 [1]: 35.5 µM [falling, single point]

Compound: Cn1nc(-c2ccc(C(=O)Nc3ccc(OC(F)(F)F)cc3)cc2)c2ccccc2c1=O
- AC50 [2]: 3.16 µM [rising, single point]
